Results of single-concentration screens

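Whole-parasite assay of Trypanosoma brucei over 72 hours; the read-out is not stated. Compounds at 30 µM. Higher reads as stronger inhibition (inferred: compounds with an IC50 in retests scored well above the rest). Values scatter widely below zero; nearly all retest evidence comes from the higher of the two concentrations used. Size under these conditions: about 64,000 compounds, about 940 of them at 50% or above in at least one test.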

Values are the deposited “Percent Effect”, in %.
How 0% and 100% were set is not recorded. Most values in the screen are low, and negative values occur.
This is an unselected part of the compounds tested.

| # | Compound | Percent Effect |
|---|---|---|
| 1 | `O=C(Nc1cccn(Cc2ccc(F)cc2)c1=O)c1cnc[nH]1` | -12.14% |
| 2 | `CN(C)c1ccc(C(=O)N2CCCN(C3CCCCC3)CC2)cn1` | -15.89% |
| 3 | `Cn1nc(COc2cccnc2)c2c1CCN(CC1CC1)C2.O=C(O)C(F)(F)F.O=C(O)C(F)(F)F` | -34.17% |
| 4 | `O=C(O)C(F)(F)F.O=C(O)C(F)(F)F.[H][C@]12CO[C@H](CN(C)C)[C@@]1([H])CCN(C(=O)NCc1cccnc1)C2` | -26.88% |
| 5 | `CCC(C)(C)n1nnnc1C(c1cccs1)N1CCc2ccccc21` (stereo unspecified) | 72.61% |
| 6 | `COc1c(C2CCCN2C(=O)c2cnn(C)c2C2CC2)c(C)nn1C` (stereo unspecified) | -31.2% |
| 7 | `Cn1cccc1C(=O)N1CCC2(CCCN(CC3CCC3)C2=O)C1` (stereo unspecified) | -42.69% |
| 8 | `NC(=O)N1CCc2cc(C(=O)O)c(-c3ccsc3)nc2CC1.O=C(O)C(F)(F)F` | -58.55% |
| 9 | `Cc1cc(NCCS(C)(=O)=O)nc2ccccc12` | -3.392% |
| 10 | `O=C(c1ccn(-c2ccc(F)cc2)n1)N1CCCC(n2ccnc2)C1` (stereo unspecified) | 4.702% |
| 11 | `CN(CCc1ccccc1)C(=O)c1cccnc1OCC(F)(F)F` | -9.923% |
| 12 | `CCS(=O)(=O)N1C[C@@H](C(=O)NC(C)C)[C@@]2(Cc3ccccc3C(=O)N2)C1` | -6.654% |
| 13 | `O=C(c1cc[nH]n1)N1CCc2ncnc(N3CCSCC3)c2CC1` | -26.22% |
| 14 | `CC(C(=O)O)N1CCc2onc(-c3ccc(F)c(F)c3)c2C1` (stereo unspecified) | -26.17% |
| 15 | `Cc1cc(C)c(S(=O)(=O)Nc2cccc3c2OCCO3)cc1C(=O)O` | -14.39% |
| 16 | `COc1ccccc1OC1CN(C(=O)C(c2ccc(F)cc2)N(C)C)C1` (stereo unspecified) | 1.927% |
| 17 | `O=C(O)C(F)(F)F.[H][C@@]12C[C@@H](C(=O)NC(C)C)C[C@@]1([H])N(Cc1ccc(OC)cc1)CCO2` | 39.95% |
| 18 | `CC(=O)N1CCCN(C(=O)NCCCn2cncn2)CC1` | 6.414% |
| 19 | `COc1ccc(C)cc1CN(C)Cc1nc2c(cnn2C)c(=O)[nH]1` | 42.24% |
| 20 | `Cc1nc2c(c(N3CCCOCC3)n1)CCN(C(=O)N1CCCC1)CC2` | 18.52% |
| 21 | `Fc1ccc(Cc2cccc(C3CCN(C4CCOCC4)CC3)n2)cc1` | 43.9% |
| 22 | `O=C(NCc1ccccn1)NC1CCOc2ccccc21` (stereo unspecified) | -5.879% |
| 23 | `CCc1cnc(NCC(C)Oc2cccnc2)nc1` (stereo unspecified) | -17.78% |
| 24 | `N#Cc1cc(S(N)(=O)=O)ccc1NC1CCc2ccc(F)cc21` (stereo unspecified) | 14.41% |
| 25 | `Cc1cnn(CC(C)NCc2nc(-c3ccsc3)oc2C)c1` (stereo unspecified) | 3.674% |
| 26 | `CCC[C@H]1CN(S(C)(=O)=O)C[C@@H]1NC(=O)Cc1ccc(OC)cc1` | -32.35% |
| 27 | `Cc1noc(C)c1CCC(=O)N1CCn2cccc2C1C` (stereo unspecified) | -9.03% |
| 28 | `COCCN(Cc1sccc1C)C(=O)COc1cccnc1` | 11.43% |
| 29 | `N#Cc1ccc(OCCN2CCc3cncnc3C2)cc1` | 3.404% |
| 30 | `CCc1ncnc2c1CCN(C(=O)Cc1ccccn1)CC2` | 43.49% |
| 31 | `O=C(O)C(F)(F)F.c1cnc(NC2COC3(CCN(Cc4cccs4)CC3)C2)nc1` (stereo unspecified) | -15.3% |
| 32 | `CN(C)CCNc1c(-c2ccccc2)c(=O)c1=O` | -7.031% |
| 33 | `[H][C@]12CC[C@]([H])(CN(C(=O)c3cc(Cl)c[nH]c3=O)C1)N(Cc1ccccc1)C2` | -61.83% |
| 34 | `Cn1nc(C(=O)NCCc2ccc(OC3CCCC3)cc2)ccc1=O` | -64.86% |
| 35 | `Cc1ccn(-c2cccc(C(=O)N3CCCC(n4ccnc4C)C3)c2)n1` (stereo unspecified) | 1.058% |
| 36 | `COCCOCCSc1nnc(Cc2ccccc2F)o1` | -39.1% |
| 37 | `Cc1cccc(OCCNC(=O)C(C)S(=O)(=O)c2ccccn2)c1` (stereo unspecified) | -110.6% |
| 38 | `O=C(O)C(F)(F)F.[H][C@@]12COC[C@]1(CNS(C)(=O)=O)CN(CCc1ccccc1)C2` | -3.417% |
| 39 | `Cc1n[nH]c(C)c1CNc1nc(-c2ccco2)nc2c1CCNCC2` | -53.77% |
| 40 | `O=C(O)C(c1ccc(Cl)c(F)c1)N1CCN(Cc2ccccn2)CC1` (stereo unspecified) | 2.649% |
| 41 | `Cc1cnn(CC2CN(Cc3nc4ccccc4nc3C)CCO2)c1` (stereo unspecified) | -0.2138% |
| 42 | `Cc1ncsc1COC(=O)c1cccc2c1OCCO2` | -31.92% |
| 43 | `CCN(CCCc1ccccc1)CC1(C)Cc2c(N)nc(N)nc2O1` (stereo unspecified) | -12.42% |
| 44 | `[H][C@@]1([C@H](C)C(=O)O)CCc2c(C)cc(OC)c(C)c2C1` | -36.71% |
| 45 | `CN1CCCN(c2nccc(-c3c[nH]nc3-c3ccncc3)n2)CC1` | 10.61% |
| 46 | `O=C(N[C@@H]1CCN(C(=O)C2CCOCC2)C[C@H]1O)c1ccccn1` | 2.801% |
| 47 | `Clc1ccc(C2(CNC3=NCCN3)CCCC2)cc1.I` | 6.232% |
| 48 | `[H][C@@]12COC[C@]1([H])[C@@H](OCCN(C)C)CN2C(=O)c1cscn1` | 29.13% |
| 49 | `CN(Cc1nnc2n1CCC2)C(=O)CCc1ccc2c(c1)OCO2` | -21.47% |
| 50 | `c1cnc(NCC2Cn3nnc(-c4ccsc4)c3CO2)nc1` (stereo unspecified) | -28.51% |
| 51 | `Cc1ccc(C(=O)N2CCOC(c3ncc(CN(C)C)[nH]3)C2)cc1F` (stereo unspecified) | -2.926% |
| 52 | `CN(Cc1nncn1-c1cccc(C(F)(F)F)c1)S(C)(=O)=O` | -7.162% |
| 53 | `Cc1nnc2n1CCN(Cc1csc(-c3cnn(C)c3)n1)C2` | -13.66% |
| 54 | `O=C(NCc1cccnc1N1CCc2ccccc2C1)c1cc(=O)[nH][nH]1` | -8.364% |
| 55 | `Fc1ccccc1-c1cccc(C2CCCN(C3CCOCC3)C2)n1` (stereo unspecified) | -0.4184% |
| 56 | `CCC[C@H]1CN(c2nc(CO)cs2)C[C@@H]1NC(=O)C1(COC)CC1` | -23.79% |
| 57 | `Cc1ccc2c(c1)C1(CCNCC1)CN2C(=O)C(C)C` | -10.81% |
| 58 | `Cc1nc(Cc2ccc(F)cc2)cc(C2COCCN2)n1.Cl` (stereo unspecified) | 101% |
| 59 | `COC1(CNC(=O)c2ccc(Cl)c(Cl)c2)CCSC1` (stereo unspecified) | -26.12% |
| 60 | `COCCN(C)CCN1CC2(CCN(C3CCNCC3)CC2)OC1=O` | -32.51% |
| 61 | `CN(C)CCN1CC(C(=O)NCc2ccc(C#N)cc2)CC1=O` (stereo unspecified) | 10.15% |
| 62 | `Cc1ccc(OCC(O)COC2CCOCC2)c(Cl)c1` (stereo unspecified) | -3.429% |
| 63 | `COC(=O)C(C)(C)NC(=O)C1CC(=O)N(CC(F)(F)F)C1` (stereo unspecified) | -30.14% |
| 64 | `O=C(CCC1CCN(C(=O)c2cnco2)CC1)NCc1cccc(Cl)c1` | -3.405% |
| 65 | `Cc1cc(C)c2[nH]c(=O)c(CN3CCC(O)(CN(C)C)C3)cc2c1` (stereo unspecified) | 1.817% |
| 66 | `CSC(C)(C)CNC(=O)NC1CCSCC1` | 8.136% |
| 67 | `CN(C(=O)Cc1ccc2c(c1)OCCO2)C1CCCC1` | -54.82% |
| 68 | `CC(C)c1noc(C(C)N2CCN(Cc3cccc(C#N)c3)CC2)n1` (stereo unspecified) | 4.243% |
| 69 | `CCOCC(=O)N1CCOCC2(CCN(c3ncccn3)C2)C1.O=C(O)C(F)(F)F` (stereo unspecified) | -43.52% |
| 70 | `Cc1nn(C)c(N2CCOCC2)c1CNC1CCc2ccccc2C1` (stereo unspecified) | -19.58% |
| 71 | `O=C(O)C(F)(F)F.[H][C@@]12CCN(c3cnccn3)C[C@]1([H])CN(C(=O)C1CCCO1)C2` (stereo partly specified) | -50.39% |
| 72 | `CCN(CC)c1ccc(NC(=O)NCC2(C(N)=O)CCOCC2)cn1` | -21.84% |
| 73 | `Cc1cccc(C(=O)NCc2ccc(S(N)(=O)=O)cc2)n1` | 5.147% |
| 74 | `COCCCC(=O)Nc1cccnc1N1CCCCC1` | -30.05% |
| 75 | `O=C(c1cccnc1)N1CCN(c2ccc(-n3cccc3)nn2)CC1` | -16.01% |
| 76 | `CN(C)c1ccc(CCCNC(=O)NCC(O)c2ccsc2)cc1` (stereo unspecified) | -47.62% |
| 77 | `COc1cc(CNC(=O)c2cc(S(C)(=O)=O)ccc2C)ccn1` | -22.38% |
| 78 | `O=c1c2cccnc2cnn1CC(O)c1ccc(Br)cc1` (stereo unspecified) | -2.103% |
| 79 | `c1ccc2c(OCCN3CCn4c(nnc4C4CC4)C3)cccc2c1` | 37.15% |
| 80 | `NC(=O)NC(=O)CCN1CCCC1c1nc(C2CCCCC2)co1` (stereo unspecified) | -72.9% |
| 81 | `Cc1ccccc1-n1cc(-c2ccnc(N[C@@H](CO)C(C)C)n2)cn1` | 5.007% |
| 82 | `COc1ccc(CN2CCC(c3cc(O)nc(C)n3)C2)c(OC)c1.O=C(O)CC(O)(CC(=O)O)C(=O)O` (stereo unspecified) | 3.8% |
| 83 | `O=C(c1ccsc1)N1CCC(c2nnc(C3CC3)o2)CC1` | -2.93% |
| 84 | `Cc1ccncc1C(=O)N1CCCC(C(=O)CCc2ccccc2)C1` (stereo unspecified) | -68.2% |
| 85 | `CN(CC(O)C1CC1)C(=O)c1ccc(-c2nc(C3CC3)n[nH]2)cc1` (stereo unspecified) | -11.54% |
| 86 | `Cn1ncc2c1C(COCC1CC1)CN(Cc1ccsc1)C2` (stereo unspecified) | -23.06% |
| 87 | `COc1cc(C2(C(=O)N3CCN(CC(C)(C)O)CC3)CC2)ccc1C` | -22.53% |
| 88 | `O=C1CN(C(=O)c2cc3c(F)cc(Br)cc3[nH]2)CCN1` | -34.56% |
| 89 | `O=C(CN1CCOC(Cn2cccn2)C1)NCCc1ccc(F)cc1` (stereo unspecified) | 2.009% |

The first 7 entries again:

Compound	Percent Effect
O=C(Nc1cccn(Cc2ccc(F)cc2)c1=O)c1cnc[nH]1	-12.14%
CN(C)c1ccc(C(=O)N2CCCN(C3CCCCC3)CC2)cn1	-15.89%
Cn1nc(COc2cccnc2)c2c1CCN(CC1CC1)C2.O=C(O)C(F)(F)F.O=C(O)C(F)(F)F	-34.17%
O=C(O)C(F)(F)F.O=C(O)C(F)(F)F.[H][C@]12CO[C@H](CN(C)C)[C@@]1([H])CCN(C(=O)NCc1cccnc1)C2	-26.88%
CCC(C)(C)n1nnnc1C(c1cccs1)N1CCc2ccccc21 (stereo unspecified)	72.61%
COc1c(C2CCCN2C(=O)c2cnn(C)c2C2CC2)c(C)nn1C (stereo unspecified)	-31.2%
Cn1cccc1C(=O)N1CCC2(CCCN(CC3CCC3)C2=O)C1 (stereo unspecified)	-42.69%

The values are deposited in ChEMBL (CHEMBL3988442, “University of Dundee, Small-Polar-MMV Screening Library” (2021)).